Results are given in words; binding and its absence hold for the method and conditions named. In cells and extracts the contact can be indirect. Some binding calls cover weakened binding; strength is not graded here.
Biological target: T1, ATG13 (human (endogenous in U266)) (UniProt O75143)
T1 sequence: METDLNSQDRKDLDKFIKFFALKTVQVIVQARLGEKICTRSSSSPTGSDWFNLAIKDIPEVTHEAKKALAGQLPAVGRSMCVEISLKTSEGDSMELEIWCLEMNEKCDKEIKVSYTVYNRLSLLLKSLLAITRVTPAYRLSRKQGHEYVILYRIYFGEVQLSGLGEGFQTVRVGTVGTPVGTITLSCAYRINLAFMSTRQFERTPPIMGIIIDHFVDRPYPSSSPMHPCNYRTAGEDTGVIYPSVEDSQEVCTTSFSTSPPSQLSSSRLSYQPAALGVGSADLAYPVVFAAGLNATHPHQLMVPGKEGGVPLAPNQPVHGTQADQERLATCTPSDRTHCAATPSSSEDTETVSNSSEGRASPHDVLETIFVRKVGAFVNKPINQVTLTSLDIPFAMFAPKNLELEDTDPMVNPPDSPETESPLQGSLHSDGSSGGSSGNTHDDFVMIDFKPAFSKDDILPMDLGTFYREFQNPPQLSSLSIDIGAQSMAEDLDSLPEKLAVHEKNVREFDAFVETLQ
Experiment: co-IP; parental U266 lysate (5x10^6 cells, 2 mg total protein) in RIPA buffer with protease inhibitors, precleared with protein G agarose, 1 ug ATG13 antibody 1 h at 4 °C, beads overnight; pellet immunoblotted

binding: binds
B1: Unc-51 Like Kinase 3 (ULK3) (enzyme, UniProt Q6PHR2 1-472)
chain: MAGPGWGPPRLDGFILTERLGSGTYATVYKAYAKKDTREVVAIKCVAKKSLNKASVENLLTEIEILKGIRHPHIVQLKDFQWDSDNIYLIMEFCAGGDLSRFIHTRRILPEKVARVFMQQLASALQFLHERNISHLDLKPQNILLSSLEKPHLKLADFGFAQHMSPWDEKHVLRGSPLYMAPEMVCQRQYDARVDLWSMGVILYEALFGQPPFASRSFSELEEKIRSNRVIELPLRPLLSRDCRDLLQRLLERDPSRRISFQDFFAHPWVDLEHMPSGESLGRATALVVQAVKKDQEGDSAAALSLYCKALDFFVPALHYEVDAQRKEAIKAKVGQYVSRAEELKAIVSSSNQALLRQGTSARDLLREMARDKPRLLAALEVASAAMAKEEAAGGEQDALDLYQHSLGELLLLLAAEPPGRRRELLHTEVQNLMARAEYLKEQVKMRESRWEADTLDKEGLSESVRSSCTLQ

— PMC12363935, “Unc-51 Like Kinase 3 (ULK3) is essential for autophagy and cell survival in multiple myeloma” (Research Square, 2025)
